Here are results for 1 molecule from publication PMC6516669.

Assay [1] deals with T1, Bradykinin B2 receptor (rat (endogenous in RASMC)) (UniProt P25023).
T1 sequence: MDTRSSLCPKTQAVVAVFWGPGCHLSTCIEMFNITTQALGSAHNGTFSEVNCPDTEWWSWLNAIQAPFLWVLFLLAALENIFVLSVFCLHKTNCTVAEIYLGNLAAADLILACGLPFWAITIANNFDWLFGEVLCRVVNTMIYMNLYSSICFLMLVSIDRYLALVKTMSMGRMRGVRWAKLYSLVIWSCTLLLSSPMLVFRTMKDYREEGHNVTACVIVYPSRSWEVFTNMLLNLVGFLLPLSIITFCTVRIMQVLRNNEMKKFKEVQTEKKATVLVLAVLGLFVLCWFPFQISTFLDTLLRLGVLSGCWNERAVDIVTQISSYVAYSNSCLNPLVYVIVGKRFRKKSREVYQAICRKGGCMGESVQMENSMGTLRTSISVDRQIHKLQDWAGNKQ
Kind of assay: proximity ligation; in-situ PLA (Duolink), dual receptor recognition with anti-B2R and anti-TP primary antibodies on fixed (4% paraformaldehyde), permeabilised (0.5% Triton X-100) RASMC; cells untreated or stimulated for 10 min with BK 10^-11 M, IBOP 10^-7 M, BK 10^-11 M + IBOP 10^-7 M, or BK 10^-7 M; blobs counted per cell with BlobFinder.

For assay [2], the target named is T1, Bradykinin B2 receptor (rat (endogenous in RASMC)). As to the kind of experiment: co-IP; anti-B2R cross-linked (DMP) to protein A Dynabeads, incubated with NP40 lysates of RASMC (1% NP40, 150 mM NaCl, pH 7.4); eluates blotted with anti-TP, then anti-B2R; cells untreated or stimulated for 10 min with BK 10^-11 M, IBOP 10^-7 M, or BK 10^-11 M + IBOP 10^-7 M; controls: mock beads without antibody, and antibody beads with PBS.

These are yes or no findings as the source states them, for the method shown. In cells and extracts the contact can be indirect. Some entries that bind do so weakly or less than the wild type.

B1: Thromboxane prostanoid receptor (receptor, UniProt P34978 1-341)
chain: MWLNSTSLGACFRPVNITLQERRAIASPWFAASFCALGLGSNLLALSVLAGARPGAGPRSSFLALLCGLVLTDFLGLLVTGAVVASQHAALLDWRATDPGCRLCHFMGAAMVFFGLCPLLLGAAMAAERFVGITRPFSRPAATSRRAWATVGLVWVGAGTLGLLPLLGLGRYSVQYPGSWCFLTLGAERGDVAFGLMFALLGSVSVGLSLLLNTVSVATLCRVYHAREATQRPRDCEVEMMVQLVGIMVVATVCWMPLLVFILQTLLQTLPVMSPSGQLLRTTERQLLIYLRVATWNQILDPWVYILFRRSVLRRLHPRFTSQLQAVSLHSPPTQAMLSGP
As to B1, the binding result in assay [1] and in assay [2] was “binds” each time.
